Test results as given in publication PMC12218971.

Amino acid sequences for entries named in this document (tags omitted). A change or cut given only in a name is not applied to a line headed by its entry.
UniProt Q9VIE8: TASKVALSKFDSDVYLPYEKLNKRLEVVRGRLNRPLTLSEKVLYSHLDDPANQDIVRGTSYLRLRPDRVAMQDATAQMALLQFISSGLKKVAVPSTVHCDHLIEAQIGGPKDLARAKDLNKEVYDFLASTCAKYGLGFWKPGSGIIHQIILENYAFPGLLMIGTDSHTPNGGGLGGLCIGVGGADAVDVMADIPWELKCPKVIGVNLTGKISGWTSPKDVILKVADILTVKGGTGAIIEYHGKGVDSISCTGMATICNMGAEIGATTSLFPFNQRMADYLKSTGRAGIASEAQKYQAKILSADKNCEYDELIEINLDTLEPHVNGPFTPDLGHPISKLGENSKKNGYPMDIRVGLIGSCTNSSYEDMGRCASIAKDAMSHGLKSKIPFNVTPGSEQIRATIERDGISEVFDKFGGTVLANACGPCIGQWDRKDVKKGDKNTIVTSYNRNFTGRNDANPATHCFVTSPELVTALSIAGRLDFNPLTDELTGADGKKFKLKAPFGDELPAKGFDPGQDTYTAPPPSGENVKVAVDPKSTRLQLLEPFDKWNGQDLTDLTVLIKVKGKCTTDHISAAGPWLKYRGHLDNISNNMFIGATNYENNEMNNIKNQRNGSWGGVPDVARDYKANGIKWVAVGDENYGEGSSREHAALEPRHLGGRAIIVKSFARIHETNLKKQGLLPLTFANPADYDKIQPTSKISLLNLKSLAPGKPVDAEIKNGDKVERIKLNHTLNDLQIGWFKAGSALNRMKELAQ

T1: Hsp22-3xFLAG (Drosophila) (UniProt P02515)
T1 sequence: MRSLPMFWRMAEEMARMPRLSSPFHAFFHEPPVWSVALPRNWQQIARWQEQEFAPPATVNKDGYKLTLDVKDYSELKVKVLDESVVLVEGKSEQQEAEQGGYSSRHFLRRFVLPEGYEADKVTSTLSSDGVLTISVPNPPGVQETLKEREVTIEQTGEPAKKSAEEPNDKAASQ

B1: RFeSP, a mitochondrial Rieske iron-sulfur protein (protein, UniProt Q9VQ29 36-230)
chain: AHTDLQVPDFSAYRRESVKDSRRRNDTAEERKAFSYLMVGAGAVGGAYAAKGLVNTFIGSMSASAEVLAMAKIEIKLSDIPEGKSVTFKWRGKPLFIRHRTAAEIETERNVPTSTLRDPEADDQRVIKPEWLVVIGVCTHLGCVPIANAGDWGGYYCPCHGSHYDASGRIRKGPAPLNLEVPTHEFPNEGLLVVG
B2: Fer1HCH (protein, UniProt Q7KRU8 20-205)
chain: DFKCSLAVPEITKDWVDMKDACIKGMRNQIQEEINASYQYLAMGAYFSRDTVNRPGFAEHFFKAAKEEREHGSKLVEYLSMRGQLTEGVSDLINVPTVAKQEWTDGAAALSDALDLEIKVTKSIRKLIQTCENKPYNHYHLVDYLTGVYLEEQLHGQRELAGKLTTLKKMMDTNGELGEFLFDKTL

What follows are molecules tested against T1, Hsp22-3xFLAG (Drosophila) (assay: affinity purification with mass spectrometry; 3xFLAG-tagged bait in transfected S2 cells (grown in 1 mM FAC or 120 µM BPS media); lysate (50 mM Tris-HCl pH 7.4, 150 mM NaCl, 1 mM EDTA, 0.1% NP-40) on M2 Flag beads 4 h at 4 °C; SDS gel slices, MALDI-TOF MS).

binding	Molecule
binds	Hsp70 (Drosophila (endogenous in S2 cells))
binds	mitochondrial Aconitase (from UniProt Q9VIE8)
binds	B1
binds	B2

No constants are given. Whether binding was seen depends on the method and setting. In cells and extracts the contact can be indirect. Here binding means that the protein was enriched with, or labelled near, the bait; the list need not be complete. Sequences can lack the tags named with a protein.
